## Percent effect of library compounds

The chains behind the UniProt entries cited, without tags or fusion partners.
UniProt P9WPC5, whole entry: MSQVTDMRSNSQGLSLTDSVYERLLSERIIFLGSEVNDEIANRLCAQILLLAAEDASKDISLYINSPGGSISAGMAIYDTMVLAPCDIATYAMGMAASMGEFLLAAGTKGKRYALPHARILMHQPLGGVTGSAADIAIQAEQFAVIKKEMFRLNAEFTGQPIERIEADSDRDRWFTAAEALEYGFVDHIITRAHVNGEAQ
UniProt P9WPC3, whole entry partner: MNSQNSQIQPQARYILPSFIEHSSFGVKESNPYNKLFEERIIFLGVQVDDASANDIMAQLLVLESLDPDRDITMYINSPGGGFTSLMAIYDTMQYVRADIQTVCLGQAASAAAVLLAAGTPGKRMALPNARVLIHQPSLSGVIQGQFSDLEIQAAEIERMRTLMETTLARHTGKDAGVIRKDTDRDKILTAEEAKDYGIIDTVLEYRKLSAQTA
UniProt I6X8D2, whole entry: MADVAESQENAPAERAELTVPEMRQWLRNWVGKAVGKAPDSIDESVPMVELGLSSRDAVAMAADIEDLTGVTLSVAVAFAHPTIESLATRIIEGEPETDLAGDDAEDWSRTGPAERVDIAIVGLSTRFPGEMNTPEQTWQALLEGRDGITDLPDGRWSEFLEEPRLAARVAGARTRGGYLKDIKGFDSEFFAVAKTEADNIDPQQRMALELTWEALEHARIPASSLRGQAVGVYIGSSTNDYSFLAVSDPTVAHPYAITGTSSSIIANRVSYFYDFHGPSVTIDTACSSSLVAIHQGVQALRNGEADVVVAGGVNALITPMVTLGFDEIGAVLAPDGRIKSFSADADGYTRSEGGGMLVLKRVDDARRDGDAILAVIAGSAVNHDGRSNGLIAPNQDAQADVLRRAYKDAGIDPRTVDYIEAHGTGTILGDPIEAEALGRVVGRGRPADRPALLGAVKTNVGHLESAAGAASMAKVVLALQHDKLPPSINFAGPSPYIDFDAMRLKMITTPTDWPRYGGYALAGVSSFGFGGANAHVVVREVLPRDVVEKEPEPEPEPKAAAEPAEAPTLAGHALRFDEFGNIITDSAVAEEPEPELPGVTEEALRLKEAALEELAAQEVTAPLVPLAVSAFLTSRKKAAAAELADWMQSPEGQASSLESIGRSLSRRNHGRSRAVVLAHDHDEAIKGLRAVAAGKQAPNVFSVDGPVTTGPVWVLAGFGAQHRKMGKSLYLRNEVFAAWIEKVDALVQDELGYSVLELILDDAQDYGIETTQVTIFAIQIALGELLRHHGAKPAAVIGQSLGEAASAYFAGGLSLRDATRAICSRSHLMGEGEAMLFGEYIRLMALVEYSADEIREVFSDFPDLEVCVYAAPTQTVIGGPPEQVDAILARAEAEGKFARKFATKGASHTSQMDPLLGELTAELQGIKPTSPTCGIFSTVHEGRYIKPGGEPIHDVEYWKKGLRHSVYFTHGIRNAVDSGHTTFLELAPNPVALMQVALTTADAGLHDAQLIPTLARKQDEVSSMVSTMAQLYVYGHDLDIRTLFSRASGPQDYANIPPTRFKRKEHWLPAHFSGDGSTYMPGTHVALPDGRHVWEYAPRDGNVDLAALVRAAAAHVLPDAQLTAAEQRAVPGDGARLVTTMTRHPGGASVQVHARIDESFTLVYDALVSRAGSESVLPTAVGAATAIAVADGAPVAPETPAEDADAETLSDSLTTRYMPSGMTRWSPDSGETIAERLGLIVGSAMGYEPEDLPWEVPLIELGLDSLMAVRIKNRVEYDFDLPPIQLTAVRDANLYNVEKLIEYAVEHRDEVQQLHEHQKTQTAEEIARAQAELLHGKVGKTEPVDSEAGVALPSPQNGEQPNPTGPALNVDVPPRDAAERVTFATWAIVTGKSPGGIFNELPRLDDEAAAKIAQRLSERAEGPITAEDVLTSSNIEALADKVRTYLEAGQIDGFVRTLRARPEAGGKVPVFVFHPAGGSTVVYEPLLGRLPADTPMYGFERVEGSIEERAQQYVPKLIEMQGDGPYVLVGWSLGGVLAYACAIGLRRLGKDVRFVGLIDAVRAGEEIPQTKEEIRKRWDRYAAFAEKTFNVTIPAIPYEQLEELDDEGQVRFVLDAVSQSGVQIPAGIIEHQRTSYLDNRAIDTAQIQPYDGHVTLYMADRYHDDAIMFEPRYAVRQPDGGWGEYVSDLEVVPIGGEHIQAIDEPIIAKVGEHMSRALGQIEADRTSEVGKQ

Source: ChEMBL document CHEMBL3988442, “University of Dundee, Small-Polar-MMV Screening Library” (2021).

Each number is a percent effect as filed.
How 0% and 100% were set is not recorded. Most values in the screen are low, and negative values occur.
This is an unselected part of the compounds tested.
A dash means the value is not listed here; it may have been measured.

A: 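Cell assay of Leishmania donovani living inside macrophages; the read-out is not stated. Tested at 30 µM. Direction is inferred from retests: higher values go with stronger inhibition. Size under these conditions: about 69,000 compounds, about 1,000 of them at 50% or above in at least one test.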
B: 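Assay of Toxoplasma gondii numbers, read through their beta-galactosidase reporter with a colour substrate. Concentration: 10 µM. Higher reads as fewer parasites (inferred from which compounds were picked for retests). About 67,000 compounds were tested under these conditions; 0.38% (about 260) showed 50% or more at least once.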
C: 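Protease assay of ClpP1P2, read by the AMC dye that it sets free. Target: ClpP1P2, Mycobacterium tuberculosis (UniProt P9WPC5 and UniProt P9WPC3). Concentration: 50 µM. Higher reads as stronger inhibition, judged from the few compounds that gave an IC50. Most other retested compounds had strongly negative values. Size under these conditions: about 69,000 compounds, about 10 of them at 50% or above in at least one test.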
D: 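Whole-parasite assay of Trypanosoma brucei over 72 hours; the read-out is not stated. Tested at 30 µM. The record gives no direction; compounds that gave an IC50 in retests scored well above the rest, so higher reads as stronger inhibition. Values scatter widely below zero; nearly all retest evidence comes from the higher of the two concentrations used. Of about 64,000 compounds tested this way, about 940 (1.5%) reached 50% or more in at least one test.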
E: 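Polyketide synthase Pks13, Mycobacterium tuberculosis (UniProt I6X8D2). Enzyme assay of the thioesterase domain of polyketide synthase 13; the read-out is not stated. Concentration: 30 µM. The record gives no direction; the compounds picked for IC50 retests had high values, so higher reads as stronger inhibition. Of about 67,000 compounds tested this way, about 300 (0.46%) reached 50% or more in at least one test.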

| # | Compound | A | B | C | D | E |
|---|---|---|---|---|---|---|
| 1 | `Cc1ccc(-c2cn[nH]c2C2CCCN(c3ncccn3)C2)cc1` (centres undefined) | 24.32 | -12.04 | -8.21 | 16.06 | -24.5 |
| 2 | `O=C1COC2(CCN(Cc3cccs3)CC2)CN1c1ccsc1` | - | - | 6.742 | - | -2.79 |
| 3 | `CC(O)C1CCN(C(=O)CCOc2ccccc2F)CC1` (centres undefined) | -54.88 | -9.251 | -1.422 | -37.51 | 2.546 |
| 4 | `NC(=O)NC(=O)CCN1C(=O)CC(Cc2ccc(F)cc2)C1=O` (centres undefined) | -9.57 | 6.562 | 0.2784 | -38.5 | -15.81 |
| 5 | `Cc1ccc(OCC(C)NS(=O)(=O)N(C)C)cc1` (centres undefined) | 23.66 | -17.46 | -10.84 | -31.48 | -15.46 |
| 6 | `CCn1c(CC2CCN(S(=O)(=O)N3CCCCC3)CC2)nn(C)c1=O` | -8.091 | -15.12 | -5.221 | 31.89 | 39.23 |
| 7 | `Cn1cnc2c1C(COCc1cccnc1)N(Cc1nccs1)CC2` (centres undefined) | - | - | -0.7312 | - | -16.36 |
| 8 | `CSc1ncc(C(=O)N2C[C@H]3CC[C@@H]2CN(c2ncccn2)C3)cn1` | - | - | 5.289 | - | -4.936 |
| 9 | `O=C(O)C(F)(F)F.[H][C@@]12COC[C@]1(CNC(=O)c1ccco1)CN(C1CCOCC1)C2` | -2.217 | -2.496 | - | -5.015 | - |
| 10 | `Cn1cccc1C(=O)NC[C@]12COC[C@H]1CN(Cc1nccs1)C2` | - | - | -5.401 | - | 6.535 |
| 11 | `[H][C@@]12CCN(C[C@@H]1CN(C)CCN(C)C)[C@@H](CNC(=O)Nc1ccsc1)C2` | -107.4 | -3.166 | - | -17.74 | - |
| 12 | `CCOC1CCN(C(=O)CN(C)c2cnccn2)CC1` | 14.71 | -13.58 | -54.28 | - | 5.64 |
| 13 | `O=C(Nc1cn[nH]c1)c1ccc(O)nc1` | 15.33 | 0.2823 | 24.19 | 16.99 | -1.081 |
| 14 | `[H][C@@]12COC[C@]1(c1nc(C)no1)CN(C(=O)N1CCCC1)C2` | 17.49 | -7.086 | - | -82.97 | - |
| 15 | `O=C(NC1CC1)[C@@H]1CCO[C@@H]2CCN(C3CCOCC3)C[C@H]21` | - | - | -11.56 | - | -9.365 |
| 16 | `Cn1cccc1C(=O)N1CCCC(Cn2cc(CO)nn2)C1` (centres undefined) | -0.8804 | -0.5917 | -20.18 | -16.92 | -9.246 |
| 17 | `CC(C)(C)OC(=O)NCCNC(=O)c1cnc(-c2ccccc2)nc1` | 11.45 | 5.275 | 10.13 | -34.29 | - |
| 18 | `Cc1nccn1Cc1cccc(CNC(=O)c2ccn(C)c(=O)c2)c1` | 14.52 | 18.19 | 8.45 | -54.27 | 3.327 |
| 19 | `CC(=O)N(C)c1nc(Cn2nnnc2C2CCCC2)cs1` | 34.07 | -2.884 | 3.102 | -23.06 | -12.39 |
| 20 | `Cc1nnc(NC(=O)NCc2ccc(OC3CCCC3)nc2)s1` | -8.963 | 12.95 | -0.5996 | - | 8.153 |
| 21 | `O=C([C@H]1C[C@H]2[C@H](CCN2Cc2cccs2)O1)N1CCOCC1` | - | - | 10.31 | - | -23.96 |
| 22 | `Cc1cc(C[C@@H]2COC[C@H]2NCc2ccc(C(C)C)cc2)on1` | - | - | -11.13 | - | 5.411 |
| 23 | `CC(=O)NC1CCN(C(=O)Nc2ccc(SC(F)F)cc2)CC1` | -11.23 | -24.9 | -4.678 | 11.86 | -6.041 |
| 24 | `Cc1nnc(N2CC[C@H]3C[C@H](C(=O)N4CCOCC4)O[C@H]3C2)s1` | - | - | 10.19 | - | -12.11 |
| 25 | `COCC(C)NC(=O)Nc1cc(-c2ccccc2C)nn1CCO` (centres undefined) | 33.19 | 5.709 | -17.86 | -30.95 | 36.29 |
| 26 | `CC(C)N(CC(=O)O)Cc1cccc(Br)c1.Cl` | 17.6 | 9.687 | - | -31.18 | - |
| 27 | `CCN(c1ccc(C(=O)NCCN2CCOCC2)cc1)S(=O)(=O)CC` | -8.504 | -23.05 | -11.04 | -53.82 | 0.01645 |
| 28 | `CCC[C@H]1CN(CCS(C)(=O)=O)C[C@@H]1NC(=O)c1cccnn1` | -0.7501 | 5.647 | -3.381 | -66.2 | 0.9902 |
| 29 | `COCCN1CCN(c2ccc(C)nn2)Cc2ccc(C)nc21.O=C(O)C(F)(F)F.O=C(O)C(F)(F)F` | 38.99 | -17.25 | - | 6.262 | - |
| 30 | `Cc1nnsc1CN1C[C@@H]2CC[C@H](C1)N(Cc1c(C)noc1C)C2=O` | - | - | 1.435 | - | -24.59 |
| 31 | `O=C(c1ccc(OCC2CC2)nc1)N1CCCC(n2cncn2)C1` (centres undefined) | 11.74 | -16.47 | 1.637 | -7.398 | 1.701 |
| 32 | `O=C(c1cc(-n2cccn2)ccn1)N1CCOc2ncccc21` | 8.802 | -5.139 | 7.234 | 15.39 | -17.96 |

Once more, the final 2:

Compound,A,B,C,D,E
O=C(c1ccc(OCC2CC2)nc1)N1CCCC(n2cncn2)C1 (centres undefined),11.74,-16.47,1.637,-7.398,1.701
O=C(c1cc(-n2cccn2)ccn1)N1CCOc2ncccc21,8.802,-5.139,7.234,15.39,-17.96